# In the supplement of paper PMC11438910:
# This is one part of the list. The signal is at background level for most entries.
# B1: 4-127.4 (protein)
# chain 1: QVQLQESGPGLVKPSETLSLTCGVSGYSISSGHGWSWIRQPPGKGLEWIGYVGGSSGNTNYNPSLKSRVTISKDTSKNQISLKLSSVTAADTAVYYCARRGISGTFGLVDYWGQGVLVTVSS
# chain 2: QSVLTQPPSVSGAPGQRVTISCTGSSSNIGGYYVQWYQQLPGSAPKLLIYDNDQRPSGVSDRISGSRSGTSASLTITGLQSEDEADYYCQSFDSFLRGVLFGGGTRLTVL
# Key:
# Assay in all cases: fluorescence intensity of antibody binding to polysaccharide-coupled beads; higher = stronger binding
# [1] = molecular target: pneumococcal polysaccharide Pn28A
# [2] = molecular target: pneumococcal polysaccharide Pn28F
# [3] = molecular target: pneumococcal polysaccharide Pn29
# [4] = molecular target: pneumococcal polysaccharide Pn3
# [5] = molecular target: pneumococcal polysaccharide Pn31
# [6] = molecular target: pneumococcal polysaccharide Pn32A
# [7] = molecular target: pneumococcal polysaccharide Pn32F
# [8] = molecular target: pneumococcal polysaccharide Pn33A
# [9] = molecular target: pneumococcal polysaccharide Pn33B
# [10] = molecular target: pneumococcal polysaccharide Pn33C
# [11] = molecular target: pneumococcal polysaccharide Pn33D
# [12] = molecular target: pneumococcal polysaccharide Pn33F
# [13] = molecular target: pneumococcal polysaccharide Pn34
# [14] = molecular target: pneumococcal polysaccharide Pn35A
# [15] = molecular target: pneumococcal polysaccharide Pn35B
# [16] = molecular target: pneumococcal polysaccharide Pn35C
# [17] = molecular target: pneumococcal polysaccharide Pn35F
# [18] = molecular target: pneumococcal polysaccharide Pn36
# [19] = molecular target: pneumococcal polysaccharide Pn37
# [20] = molecular target: pneumococcal polysaccharide Pn38
# [21] = molecular target: pneumococcal polysaccharide Pn39
# [22] = molecular target: pneumococcal polysaccharide Pn4
# [23] = molecular target: pneumococcal polysaccharide Pn40
# [24] = molecular target: pneumococcal polysaccharide Pn41A
# [25] = antibody concentration 2337.65 ng/mL
# [26] = antibody concentration 12500 ng/mL
# [27] = antibody concentration 0.1 ng/mL
# [28] = antibody concentration 0.534724 ng/mL
# [29] = antibody concentration 2.8593 ng/mL
# [30] = antibody concentration 15.2894 ng/mL
# [31] = antibody concentration 81.7561 ng/mL
# [32] = antibody concentration 437.17 ng/mL
binder,measurement,setting,value
B1,fluorescence intensity,[1]; [25],29.5 MFI
same,fluorescence intensity,[1]; [26],34.8 MFI
same,fluorescence intensity,[2]; [27],28 MFI
same,fluorescence intensity,[2]; [28],31 MFI
same,fluorescence intensity,[2]; [29],30 MFI
same,fluorescence intensity,[2]; [30],31.5 MFI
same,fluorescence intensity,[2]; [31],30 MFI
same,fluorescence intensity,[2]; [32],32.5 MFI
same,fluorescence intensity,[2]; [25],34 MFI
same,fluorescence intensity,[2]; [26],49 MFI
same,fluorescence intensity,[3]; [27],16 MFI
same,fluorescence intensity,[3]; [28],15.5 MFI
same,fluorescence intensity,[3]; [29],14.5 MFI
same,fluorescence intensity,[3]; [30],15.5 MFI
same,fluorescence intensity,[3]; [31],16.5 MFI
same,fluorescence intensity,[3]; [32],18.5 MFI
same,fluorescence intensity,[3]; [25],20 MFI
same,fluorescence intensity,[3]; [26],38.5 MFI
same,fluorescence intensity,[4]; [27],18.2 MFI
same,fluorescence intensity,[4]; [28],39.8 MFI
same,fluorescence intensity,[4]; [29],128 MFI
same,fluorescence intensity,[4]; [30],626 MFI
same,fluorescence intensity,[4]; [31],1880 MFI
same,fluorescence intensity,[4]; [32],5610 MFI
same,fluorescence intensity,[4]; [25],6220 MFI
same,fluorescence intensity,[4]; [26],6810 MFI
same,fluorescence intensity,[5]; [27],13.5 MFI
same,fluorescence intensity,[5]; [28],13 MFI
same,fluorescence intensity,[5]; [29],13.2 MFI
same,fluorescence intensity,[5]; [30],14 MFI
same,fluorescence intensity,[5]; [31],13.5 MFI
same,fluorescence intensity,[5]; [32],15.5 MFI
same,fluorescence intensity,[5]; [25],16.5 MFI
same,fluorescence intensity,[5]; [26],39.2 MFI
same,fluorescence intensity,[6]; [27],17.5 MFI
same,fluorescence intensity,[6]; [28],18 MFI
same,fluorescence intensity,[6]; [29],17.5 MFI
same,fluorescence intensity,[6]; [30],17.5 MFI
same,fluorescence intensity,[6]; [31],18.8 MFI
same,fluorescence intensity,[6]; [32],20 MFI
same,fluorescence intensity,[6]; [25],20.8 MFI
same,fluorescence intensity,[6]; [26],33.5 MFI
same,fluorescence intensity,[7]; [27],29 MFI
same,fluorescence intensity,[7]; [28],27.5 MFI
same,fluorescence intensity,[7]; [29],28.5 MFI
same,fluorescence intensity,[7]; [30],28 MFI
same,fluorescence intensity,[7]; [31],29.5 MFI
same,fluorescence intensity,[7]; [32],30 MFI
same,fluorescence intensity,[7]; [25],37.5 MFI
same,fluorescence intensity,[7]; [26],48.8 MFI
same,fluorescence intensity,[8]; [27],19 MFI
same,fluorescence intensity,[8]; [28],17.5 MFI
same,fluorescence intensity,[8]; [29],17 MFI
same,fluorescence intensity,[8]; [30],17.8 MFI
same,fluorescence intensity,[8]; [31],18 MFI
same,fluorescence intensity,[8]; [32],19 MFI
same,fluorescence intensity,[8]; [25],29.5 MFI
same,fluorescence intensity,[8]; [26],96.5 MFI
same,fluorescence intensity,[9]; [27],18 MFI
same,fluorescence intensity,[9]; [28],17.5 MFI
same,fluorescence intensity,[9]; [29],17 MFI
same,fluorescence intensity,[9]; [30],18 MFI
same,fluorescence intensity,[9]; [31],18 MFI
same,fluorescence intensity,[9]; [32],18.5 MFI
same,fluorescence intensity,[9]; [25],19 MFI
same,fluorescence intensity,[9]; [26],21.5 MFI
same,fluorescence intensity,[10]; [27],20.5 MFI
same,fluorescence intensity,[10]; [28],19.5 MFI
same,fluorescence intensity,[10]; [29],20 MFI
same,fluorescence intensity,[10]; [30],18.2 MFI
same,fluorescence intensity,[10]; [31],18.5 MFI
same,fluorescence intensity,[10]; [32],19 MFI
same,fluorescence intensity,[10]; [25],20.5 MFI
same,fluorescence intensity,[10]; [26],25.8 MFI
same,fluorescence intensity,[11]; [27],15 MFI
same,fluorescence intensity,[11]; [28],16 MFI
same,fluorescence intensity,[11]; [29],17 MFI
same,fluorescence intensity,[11]; [30],16.8 MFI
same,fluorescence intensity,[11]; [31],16.5 MFI
same,fluorescence intensity,[11]; [32],16.5 MFI
same,fluorescence intensity,[11]; [25],17.2 MFI
same,fluorescence intensity,[11]; [26],20 MFI
same,fluorescence intensity,[12]; [27],12 MFI
same,fluorescence intensity,[12]; [28],13.5 MFI
same,fluorescence intensity,[12]; [29],12.5 MFI
same,fluorescence intensity,[12]; [30],13.2 MFI
same,fluorescence intensity,[12]; [31],14 MFI
same,fluorescence intensity,[12]; [32],15.5 MFI
same,fluorescence intensity,[12]; [25],20 MFI
same,fluorescence intensity,[12]; [26],57.8 MFI
same,fluorescence intensity,[13]; [27],13.5 MFI
same,fluorescence intensity,[13]; [28],14 MFI
same,fluorescence intensity,[13]; [29],14 MFI
same,fluorescence intensity,[13]; [30],14.5 MFI
same,fluorescence intensity,[13]; [31],12.5 MFI
same,fluorescence intensity,[13]; [32],15.2 MFI
same,fluorescence intensity,[13]; [25],13.5 MFI
same,fluorescence intensity,[13]; [26],17 MFI
same,fluorescence intensity,[14]; [27],18.5 MFI
same,fluorescence intensity,[14]; [28],16 MFI
same,fluorescence intensity,[14]; [29],16.5 MFI
same,fluorescence intensity,[14]; [30],17 MFI
same,fluorescence intensity,[14]; [31],16.5 MFI
same,fluorescence intensity,[14]; [32],16.5 MFI
same,fluorescence intensity,[14]; [25],17.8 MFI
same,fluorescence intensity,[14]; [26],33 MFI
same,fluorescence intensity,[15]; [27],18.5 MFI
same,fluorescence intensity,[15]; [28],18.2 MFI
same,fluorescence intensity,[15]; [29],17 MFI
same,fluorescence intensity,[15]; [30],17.8 MFI
same,fluorescence intensity,[15]; [31],17.5 MFI
same,fluorescence intensity,[15]; [32],17 MFI
same,fluorescence intensity,[15]; [25],20.5 MFI
same,fluorescence intensity,[15]; [26],29 MFI
same,fluorescence intensity,[16]; [27],19.8 MFI
same,fluorescence intensity,[16]; [28],20 MFI
same,fluorescence intensity,[16]; [29],20.2 MFI
same,fluorescence intensity,[16]; [30],19.2 MFI
same,fluorescence intensity,[16]; [31],20 MFI
same,fluorescence intensity,[16]; [32],20.5 MFI
same,fluorescence intensity,[16]; [25],21.5 MFI
same,fluorescence intensity,[16]; [26],23 MFI
same,fluorescence intensity,[17]; [27],19.5 MFI
same,fluorescence intensity,[17]; [28],17.8 MFI
same,fluorescence intensity,[17]; [29],21 MFI
same,fluorescence intensity,[17]; [30],18.5 MFI
same,fluorescence intensity,[17]; [31],17.5 MFI
same,fluorescence intensity,[17]; [32],18.5 MFI
same,fluorescence intensity,[17]; [25],21 MFI
same,fluorescence intensity,[17]; [26],21 MFI
same,fluorescence intensity,[18]; [27],15.5 MFI
same,fluorescence intensity,[18]; [28],15.8 MFI
same,fluorescence intensity,[18]; [29],16 MFI
same,fluorescence intensity,[18]; [30],15.5 MFI
same,fluorescence intensity,[18]; [31],16 MFI
same,fluorescence intensity,[18]; [32],17 MFI
same,fluorescence intensity,[18]; [25],18.5 MFI
same,fluorescence intensity,[18]; [26],34.5 MFI
same,fluorescence intensity,[19]; [27],23.5 MFI
same,fluorescence intensity,[19]; [28],23.8 MFI
same,fluorescence intensity,[19]; [29],25 MFI
same,fluorescence intensity,[19]; [30],26.5 MFI
same,fluorescence intensity,[19]; [31],26.5 MFI
same,fluorescence intensity,[19]; [32],31 MFI
same,fluorescence intensity,[19]; [25],39 MFI
same,fluorescence intensity,[19]; [26],120 MFI
same,fluorescence intensity,[20]; [27],25.5 MFI
same,fluorescence intensity,[20]; [28],25 MFI
same,fluorescence intensity,[20]; [29],26 MFI
same,fluorescence intensity,[20]; [30],25.5 MFI
same,fluorescence intensity,[20]; [31],25.5 MFI
same,fluorescence intensity,[20]; [32],25 MFI
same,fluorescence intensity,[20]; [25],29 MFI
same,fluorescence intensity,[20]; [26],37 MFI
same,fluorescence intensity,[21]; [27],19 MFI
same,fluorescence intensity,[21]; [28],18 MFI
same,fluorescence intensity,[21]; [29],16.2 MFI
same,fluorescence intensity,[21]; [30],19 MFI
same,fluorescence intensity,[21]; [31],18.5 MFI
same,fluorescence intensity,[21]; [32],18 MFI
same,fluorescence intensity,[21]; [25],19.5 MFI
same,fluorescence intensity,[21]; [26],29 MFI
same,fluorescence intensity,[22]; [27],17.5 MFI
same,fluorescence intensity,[22]; [28],18 MFI
same,fluorescence intensity,[22]; [29],18.5 MFI
same,fluorescence intensity,[22]; [30],19 MFI
same,fluorescence intensity,[22]; [31],19.2 MFI
same,fluorescence intensity,[22]; [32],21.2 MFI
same,fluorescence intensity,[22]; [25],25.5 MFI
same,fluorescence intensity,[22]; [26],35.5 MFI
same,fluorescence intensity,[23]; [27],17.8 MFI
same,fluorescence intensity,[23]; [28],16.5 MFI
same,fluorescence intensity,[23]; [29],17 MFI
same,fluorescence intensity,[23]; [30],16.5 MFI
same,fluorescence intensity,[23]; [31],16.5 MFI
same,fluorescence intensity,[23]; [32],19 MFI
same,fluorescence intensity,[23]; [25],19.8 MFI
same,fluorescence intensity,[23]; [26],40 MFI
same,fluorescence intensity,[24]; [27],21.5 MFI
same,fluorescence intensity,[24]; [28],22.5 MFI

# Six entries from above, with tabs.
binder	measurement	setting	value
B1	fluorescence intensity	[12]; [28]	13.5 MFI
same	fluorescence intensity	[12]; [29]	12.5 MFI
same	fluorescence intensity	[12]; [30]	13.2 MFI
same	fluorescence intensity	[12]; [31]	14 MFI
same	fluorescence intensity	[12]; [32]	15.5 MFI
same	fluorescence intensity	[12]; [25]	20 MFI

# 3 consecutive records already listed, quoted:
binder,measurement,setting,value
B1,fluorescence intensity,[7]; [27],29 MFI
same,fluorescence intensity,[7]; [28],27.5 MFI
same,fluorescence intensity,[7]; [29],28.5 MFI

# Reformatted: results already given.
binder | measurement | setting | value
B1 | fluorescence intensity | [4]; [27] | 18.2 MFI
same | fluorescence intensity | [15]; [25] | 20.5 MFI
same | fluorescence intensity | [21]; [25] | 19.5 MFI
